{
  "source": "the supplement of paper PMC8728848",
  "binders": {"B1": {"name": "LlpB (Pseudomonas fluorescens) (protein)", "chain": "MGSSHHHHHHSSGLVPRGSHMASSGFRIILFNSANNGTAILPPRNCLVAGQYLESPSKRYKLILEADGNLRLYDNGVPIWVADSSVPYTYVDNRPNTNLVTCFYMQGSAFLVDRVGSRTWATIGDWIDGAADRAYLQVQDDGNVVVVDGVPRWARFGFTPAALPNRGVFYPDHGTGPLPSFPVWSWTF"}},
  "assay_in_all_cases": "glycan array binding signal (z-score within array); higher = stronger binding",
  "details_in_all_cases": "glycan notation: IUPAC condensed, linker removed",
  "key": {"[1]": {"target": "Neu5Ac(a2-6)Gal(b1-4)GlcNAc(b1-6)[Gal(b1-3)]GalNAc", "method_in_brief": "(§1)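 The binding signal is a Z-score computed within each array and averaged over linkers. Arrays of the same protein sequence at different concentrations or buffers were also averaged together. Data originate from 3228 arrays in the Consortium for Functional Glycomics database, kept only where the protein sequence was available.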"}, "[2]": {"target": "Neu5Ac(a2-6)Gal(b1-4)GlcNAc6S", "method_in_brief": "as §1"}, "Neu5Ac(a2-6)GalNAc": {"target": "Neu5Ac(a2-6)GalNAc", "method_in_brief": "as §1"}, "[3]": {"target": "Neu5Ac(a2-6)GalNAc(b1-4)GlcNAc", "method_in_brief": "as §1"}, "[4]": {"target": "Neu5Ac(a2-6)GalNAc(b1-4)GlcNAc6S", "method_in_brief": "as §1"}, "[5]": {"target": "Neu5Ac(a2-6)GlcNAc(b1-4)GlcNAc", "method_in_brief": "as §1"}, "[6]": {"target": "Neu5Ac(a2-6)GlcNAc(b1-4)GlcNAc(b1-4)GlcNAc", "method_in_brief": "as §1"}, "Neu5Ac(a2-8)Neu5Ac": {"target": "Neu5Ac(a2-8)Neu5Ac", "method_in_brief": "as §1"}, "[7]": {"target": "Neu5Ac(a2-8)Neu5Ac(a2-3)Gal(b1-3)GalNAc(b1-4)[Neu5Ac(a2-3)]Gal(b1-4)Glc", "method_in_brief": "as §1"}, "[8]": {"target": "Neu5Ac(a2-8)Neu5Ac(a2-3)Gal(b1-3)GalNAc(b1-4)[Neu5Ac(a2-8)Neu5Ac(a2-3)]Gal(b1-4)Glc", "method_in_brief": "as §1"}, "[9]": {"target": "Neu5Ac(a2-8)Neu5Ac(a2-3)Gal(b1-4)Glc", "method_in_brief": "as §1"}, "[10]": {"target": "Neu5Ac(a2-8)Neu5Ac(a2-3)Gal(b1-4)GlcNAc", "method_in_brief": "as §1"}, "[11]": {"target": "Neu5Ac(a2-8)Neu5Ac(a2-3)[Gal(b1-3)GalNAc(b1-4)]Gal(b1-4)Glc", "method_in_brief": "as §1"}, "[12]": {"target": "Neu5Ac(a2-8)Neu5Ac(a2-3)[GalNAc(b1-4)]Gal(b1-4)Glc", "method_in_brief": "as §1"}, "[13]": {"target": "Neu5Ac(a2-8)Neu5Ac(a2-8)Neu5Ac", "method_in_brief": "as §1"}, "[14]": {"target": "Neu5Ac(a2-8)Neu5Ac(a2-8)Neu5Ac(a2-3)Gal(b1-4)Glc", "method_in_brief": "as §1"}, "[15]": {"target": "Neu5Ac(a2-8)Neu5Ac(a2-8)Neu5Ac(a2-3)[Gal(b1-3)GalNAc(b1-4)]Gal(b1-4)Glc", "method_in_brief": "as §1"}, "[16]": {"target": "Neu5Ac(a2-8)Neu5Ac(a2-8)Neu5Ac(a2-3)[GalNAc(b1-4)]Gal(b1-4)Glc", "method_in_brief": "as §1"}, "[17]": {"target": "Neu5Ac(a2-8)Neu5Ac(a2-8)Neu5Ac(a2-8)Neu5Ac(a2-3)[GalNAc(b1-4)]Gal(b1-4)Glc", "method_in_brief": "as §1"}, "[18]": {"target": "Neu5Ac(a2-8)Neu5Gc(a2-3)Gal(b1-4)GlcNAc", "method_in_brief": "as §1"}, "[19]": {"target": "Neu5Ac(b2-6)Gal(b1-4)GlcNAc", "method_in_brief": "as §1"}, "Neu5Ac(b2-6)GalNAc": {"target": "Neu5Ac(b2-6)GalNAc", "method_in_brief": "as §1"}, "[20]": {"target": "Neu5Ac9Ac(a2-3)Gal(b1-3)GlcNAc", "method_in_brief": "as §1"}, "[21]": {"target": "Neu5Ac9Ac(a2-3)Gal(b1-4)GlcNAc", "method_in_brief": "as §1"}, "[22]": {"target": "Neu5Ac9Ac(a2-6)Gal(b1-4)GlcNAc", "method_in_brief": "as §1"}, "[23]": {"target": "Neu5Gc(a2-3)Gal(b1-3)GlcNAc", "method_in_brief": "as §1"}, "[24]": {"target": "Neu5Gc(a2-3)Gal(b1-3)[Fuc(a1-4)]GlcNAc", "method_in_brief": "as §1"}, "Neu5Gc(a2-3)Gal(b1-4)Glc": {"target": "Neu5Gc(a2-3)Gal(b1-4)Glc", "method_in_brief": "as §1"}, "[25]": {"target": "Neu5Gc(a2-3)Gal(b1-4)GlcNAc", "method_in_brief": "as §1"}, "[26]": {"target": "Neu5Gc(a2-3)Gal(b1-4)GlcNAc(b1-3)Gal(b1-4)GlcNAc(b1-2)Man(a1-3)[Neu5Gc(a2-3)Gal(b1-4)GlcNAc(b1-3)Gal(b1-4)GlcNAc(b1-2)Man(a1-6)]Man(b1-4)GlcNAc(b1-4)GlcNAc", "method_in_brief": "as §1"}, "[27]": {"target": "Neu5Gc(a2-3)Gal(b1-4)[Fuc(a1-3)]GlcNAc", "method_in_brief": "as §1"}, "[28]": {"target": "Neu5Gc(a2-6)Gal(b1-4)GlcNAc", "method_in_brief": "as §1"}, "Neu5Gc(a2-6)GalNAc": {"target": "Neu5Gc(a2-6)GalNAc", "method_in_brief": "as §1"}, "[29]": {"target": "Neu5Gc(a2-8)Neu5Ac(a2-3)Gal(b1-4)GlcNAc", "method_in_brief": "as §1"}, "[30]": {"target": "Neu5Gc(a2-8)Neu5Gc(a2-3)Gal(b1-4)GlcNAc", "method_in_brief": "as §1"}, "[31]": {"target": "Neu5Gc(a2-8)Neu5Gc(a2-3)Gal(b1-4)GlcNAc(b1-3)Gal(b1-4)GlcNAc", "method_in_brief": "as §1"}, "[32]": {"target": "Neu5Gc(a2-8)Neu5Gc(a2-6)Gal(b1-4)GlcNAc", "method_in_brief": "as §1"}, "[33]": {"target": "Neu5Gc(b2-6)Gal(b1-4)GlcNAc", "method_in_brief": "as §1"}},
  "note": "The list shows a part of the results.",
  "data": [
    {"binder": "B1", "values": [
      {"measurement": "glycan array binding signal (z-score)", "setting": "[1]", "result": 0.13},
      {"measurement": "glycan array binding signal (z-score)", "setting": "[2]", "result": 0.975},
      {"measurement": "glycan array binding signal (z-score)", "setting": "Neu5Ac(a2-6)GalNAc", "result": -0.867},
      {"measurement": "glycan array binding signal (z-score)", "setting": "[3]", "result": -0.182},
      {"measurement": "glycan array binding signal (z-score)", "setting": "[4]", "result": -1.96},
      {"measurement": "glycan array binding signal (z-score)", "setting": "[5]", "result": -0.969},
      {"measurement": "glycan array binding signal (z-score)", "setting": "[6]", "result": 2.47},
      {"measurement": "glycan array binding signal (z-score)", "setting": "Neu5Ac(a2-8)Neu5Ac", "result": 0.018},
      {"measurement": "glycan array binding signal (z-score)", "setting": "[7]", "result": 2.81},
      {"measurement": "glycan array binding signal (z-score)", "setting": "[8]", "result": 1.61},
      {"measurement": "glycan array binding signal (z-score)", "setting": "[9]", "result": -0.364},
      {"measurement": "glycan array binding signal (z-score)", "setting": "[10]", "result": -1.02},
      {"measurement": "glycan array binding signal (z-score)", "setting": "[11]", "result": -1.03},
      {"measurement": "glycan array binding signal (z-score)", "setting": "[12]", "result": -0.424},
      {"measurement": "glycan array binding signal (z-score)", "setting": "[13]", "result": -0.564},
      {"measurement": "glycan array binding signal (z-score)", "setting": "[14]", "result": 1.01},
      {"measurement": "glycan array binding signal (z-score)", "setting": "[15]", "result": 1.6},
      {"measurement": "glycan array binding signal (z-score)", "setting": "[16]", "result": -1.26},
      {"measurement": "glycan array binding signal (z-score)", "setting": "[17]", "result": -0.352},
      {"measurement": "glycan array binding signal (z-score)", "setting": "[18]", "result": 0.37},
      {"measurement": "glycan array binding signal (z-score)", "setting": "[19]", "result": -0.881},
      {"measurement": "glycan array binding signal (z-score)", "setting": "Neu5Ac(b2-6)GalNAc", "result": -1.02},
      {"measurement": "glycan array binding signal (z-score)", "setting": "[20]", "result": -0.008},
      {"measurement": "glycan array binding signal (z-score)", "setting": "[21]", "result": 0.332},
      {"measurement": "glycan array binding signal (z-score)", "setting": "[22]", "result": 0.437},
      {"measurement": "glycan array binding signal (z-score)", "setting": "[23]", "result": -0.538},
      {"measurement": "glycan array binding signal (z-score)", "setting": "[24]", "result": 0.078},
      {"measurement": "glycan array binding signal (z-score)", "setting": "Neu5Gc(a2-3)Gal(b1-4)Glc", "result": 0.956},
      {"measurement": "glycan array binding signal (z-score)", "setting": "[25]", "result": -1.45},
      {"measurement": "glycan array binding signal (z-score)", "setting": "[26]", "result": 1.36},
      {"measurement": "glycan array binding signal (z-score)", "setting": "[27]", "result": -1.51},
      {"measurement": "glycan array binding signal (z-score)", "setting": "[28]", "result": 0.183},
      {"measurement": "glycan array binding signal (z-score)", "setting": "Neu5Gc(a2-6)GalNAc", "result": -0.448},
      {"measurement": "glycan array binding signal (z-score)", "setting": "[29]", "result": 0.652},
      {"measurement": "glycan array binding signal (z-score)", "setting": "[30]", "result": -1.49},
      {"measurement": "glycan array binding signal (z-score)", "setting": "[31]", "result": -1.27},
      {"measurement": "glycan array binding signal (z-score)", "setting": "[32]", "result": 0.062},
      {"measurement": "glycan array binding signal (z-score)", "setting": "[33]", "result": 0.672}
    ]}
  ]
}
